Data from PMC6557901, “Rif1 S-acylation mediates DNA double-strand break repair at the inner nuclear membrane”.
The comparison behind a weaker result is the experiment's own reference, which may not be listed here.

Protein sequences, listed by entry. Tags and fused reporters are not part of them. Residues count along the entry.
UniProt P29539, 100-1322 K437E/K563E/K570E: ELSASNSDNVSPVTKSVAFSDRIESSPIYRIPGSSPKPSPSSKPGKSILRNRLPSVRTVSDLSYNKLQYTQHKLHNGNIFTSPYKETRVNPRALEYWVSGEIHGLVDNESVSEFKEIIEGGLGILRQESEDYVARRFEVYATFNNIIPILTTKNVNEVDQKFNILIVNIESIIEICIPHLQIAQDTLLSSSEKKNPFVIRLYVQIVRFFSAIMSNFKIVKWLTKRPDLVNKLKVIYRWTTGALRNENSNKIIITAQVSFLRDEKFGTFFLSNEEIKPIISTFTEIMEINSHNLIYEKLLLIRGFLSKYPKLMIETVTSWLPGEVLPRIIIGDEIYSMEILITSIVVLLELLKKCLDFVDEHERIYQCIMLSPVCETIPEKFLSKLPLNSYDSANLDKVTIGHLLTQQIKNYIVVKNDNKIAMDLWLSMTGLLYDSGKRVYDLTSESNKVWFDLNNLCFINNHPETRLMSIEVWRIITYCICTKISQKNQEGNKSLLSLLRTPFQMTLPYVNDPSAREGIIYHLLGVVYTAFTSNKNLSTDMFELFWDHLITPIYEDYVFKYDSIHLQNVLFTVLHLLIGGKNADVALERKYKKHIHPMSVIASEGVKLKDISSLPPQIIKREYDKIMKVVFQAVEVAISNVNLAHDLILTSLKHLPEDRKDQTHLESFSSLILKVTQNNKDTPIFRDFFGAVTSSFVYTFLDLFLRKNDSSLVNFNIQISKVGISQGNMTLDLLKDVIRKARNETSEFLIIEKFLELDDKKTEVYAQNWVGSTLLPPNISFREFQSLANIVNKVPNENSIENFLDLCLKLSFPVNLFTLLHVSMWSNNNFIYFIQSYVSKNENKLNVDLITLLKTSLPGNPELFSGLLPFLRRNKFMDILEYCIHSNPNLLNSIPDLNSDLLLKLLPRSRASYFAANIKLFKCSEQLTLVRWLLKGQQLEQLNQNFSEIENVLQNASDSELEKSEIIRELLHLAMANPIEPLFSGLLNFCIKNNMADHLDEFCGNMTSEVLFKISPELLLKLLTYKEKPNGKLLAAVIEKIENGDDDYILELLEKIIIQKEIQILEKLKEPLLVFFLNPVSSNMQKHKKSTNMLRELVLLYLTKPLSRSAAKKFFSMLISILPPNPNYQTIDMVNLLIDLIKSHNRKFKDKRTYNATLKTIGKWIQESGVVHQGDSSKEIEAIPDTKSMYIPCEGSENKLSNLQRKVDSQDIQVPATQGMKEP

Molecular target: Rif1 NTD (100-1322) HOOK mutant K437E,K563E,K570E (Saccharomyces cerevisiae) (UniProt P29539)
Test: EMSA
Details: protein 10-160 nM, DNA 1 nM, impaired, residual binding; 20 mM Tris-HCl pH 8.0, 100 mM NaCl, 2.5 mM MgCl2, 10 mM CaCl2, 0.1 mg/ml BSA, 1 mM TCEP, 30 min at 20 °C; 1.2% agarose gel, 0.5x TBE, 4 °C; recombinant protein; residues 100-1322; protein details: N-terminal Strep(II); label: 5'-32P on EMSA1

“TAGCAAGGCACTGGTAGAATTCGGCAGCGT (double strand) [30 bp dsDNA (EMSA1/EMSA2)]”: binds more weakly.
